Measurements: PubChem BioAssay AID624297 (National Center for Advancing Translational Sciences (NCATS), 2012)
Out of some 340,000 compounds screened, about 6,200 (1.8%) were called active. The shares of active, inactive and inconclusive entries below differ from those in the screen. Calls come from the whole dose curve; as a rule, active = well fitted activation curve with a large enough effect; inconclusive = small, poorly fitted or top-dose-only effect; inactive = no such curve, though single readings can be large or run the other way. Potencies of inconclusive entries are doubtful fits and often do not repeat.

Assay: A quantitative high throughput screen for small molecules that induce DNA re-replication in SW480 colon adenocarcinoma cells. For re-replication activation: % of control where 0% means no effect. Note: nearly all actives have a fitted effect of over 55% in size.
Settings: Hoechst DNA content imaging, 48 h; re-replication activation: at 46.1 µM (top of the series) unless noted
Method in brief: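 250 cells/well; 23 nL cpd via pin tool; 48 hr, 37 C, 5% CO2; Hoechst 40 min; imager read of total nuclear intensity, ex 405/em 500-530 nm.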
Potency is the fitted concentration of half-maximal effect.

Row | SMILES | Potency | re-replication activation
1 | C[n+]1ccn(CC(=O)c2cc(C(C)(C)C)c(O)c(C(C)(C)C)c2)c1 | inconclusive: 18.4 µM [activator, single point] | 
2 | Cc1cc(=O)n2nc(N3CCCC3C(=O)Nc3ccc(C(C)C)cc3)sc2n1 (centres undefined) |  | inactive: 3.36%
3 | CC(=O)Nc1ccc(C2=CC(=O)C[C@H](c3ccc(Cl)cc3)C2)cc1 | inconclusive: 16.4 µM [activator, single point] | 
4 | CC[n+]1ccccc1/C=C1\Sc2ccc(C)cc2N1C |  | inactive: -2.35%
5 | C/C(=N\Nc1cc(N2CCOCC2)nc(C)n1)c1ccc(F)cc1 | inconclusive: 29.1 µM [activator, single point] | 
6 | CC(=O)c1c(O)cc(O)c(C(C)=O)c1O | inconclusive: 1.46 µM [activator, full curve, poor fit] | 
7 | NC(=O)COC(=O)/C=C/c1ccc2ccccc2n1 | inconclusive: 18.4 µM [activator, partial curve, poor fit] | 
8 | O=C(Nc1ccc2c(c1)OCO2)c1c(F)c(F)c(F)c(F)c1F | inconclusive: 29.1 µM [activator, single point] | 
9 | COc1ccc(C(=O)COC(=O)c2ccc(-n3cnnn3)cc2)c(OC)c1 | inconclusive: 5.8 µM [activator, partial curve, poor fit] | 
10 | CCCC(=O)NC(c1ccccc1Cl)c1ccc2cccnc2c1O (centres undefined) | inconclusive: 9.2 µM [activator, partial curve, poor fit] | 
11 | Cc1ccc(CN(CCO)CCO)cc1 |  | inactive: -5.12%
12 | CCN(C[C@H]1N[C@@](Cc2ccccc2)(C(=O)OC)[C@H]2C(=O)N(C)C(=O)[C@@H]12)S(=O)(=O)c1ccc(-c2ccccc2)cc1 | inconclusive: 29.1 µM [activator, single point] | 
13 | CC(C)NC(=O)NC(=O)CSc1nnc(COc2ccccc2F)n1C(C)C1CC2CCC1C2 (centres undefined) | inconclusive: 22.4 µM [activator, single point] | 
14 | C/C(=C\C(=O)c1ccccc1)NNC(=O)c1ccc(Cl)cc1 | inconclusive: 29.1 µM [activator, single point] | 
15 | CC(O)c1nc2ccccc2n1CCCOc1ccccc1 (centres undefined) | inconclusive: 29.1 µM [activator, single point] | 
16 | O=C(Cc1ccc(Cl)cc1)NCC(=O)N1CCCCCC1 | inconclusive: 25.9 µM [activator, single point] | 
17 | Cc1ccc(NC(=O)c2cccc(S(=O)(=O)N3CCc4ccccc4C3)c2)nc1 |  | inactive: -49.3%
18 | O=C1c2ccc(-c3ccc(F)cc3OCc3ccccc3)cc2S(=O)(=O)c2cccc(C(=O)N3CCN(c4ncc(Br)cn4)CC3)c21 | inconclusive: 0.164 µM [activator, full curve, poor fit] | 
19 | CN(C)S(=O)(=O)c1ccc(Cl)c(NC(=O)CN2CCCCCC2)c1 |  | inactive: -0.91%
20 | CN(C)c1cccc(C(=O)OCC(=O)NC2CCCC2)c1 |  | inactive: -5.03%
21 | O=C(CN1CCCC1)Nc1ccccc1Sc1ccccc1 |  | inactive: 2.83%
22 | CC(SC1=Nc2ccccc2C2CC=NN12)C(=O)NC1(C#N)CCCCC1 (centres undefined) | inconclusive: 29.1 µM [activator, single point] | 

Row | SMILES | Potency | re-replication activation
23 | CC1CCN(CCCNC(=O)c2cc3c(Cl)nc4ccccc4c3s2)CC1 | inconclusive: 18.4 µM [activator, single point] | 
24 | COc1ccc(C2(C)C(C#N)C(=O)NC(=O)C2C#N)cc1 (centres undefined) | inconclusive: 7.31 µM [activator, partial curve] | 
25 | COc1ccccc1N(CC(=O)Nc1ccccc1C(=O)N1CCOCC1)S(C)(=O)=O |  | inactive: 3.41%
26 | CCNC(=O)[C@@H]1CCCN1C(=O)[C@H](CCCN=C(N)N)NC(=O)[C@H](CC(C)C)NC(=O)[C@@H](Cc1c[nH]c2ccccc12)NC(=O)[C@H](Cc1ccc(O)cc1)NC(=O)[C@H](CO)NC(=O)[C@H](Cc1c[nH]c2ccccc12)NC(=O)[C@H](Cc1cnc[nH]1)NC(=O)[C@@H]1CCC(=O)N1 | inconclusive: 7.5 µM [activator, partial curve, poor fit] | 
27 | CC1CCCCN1CCCNC(=O)c1nn(C)c2c1CSc1ccccc1-2 (centres undefined) |  | inactive: -18.7%
28 | Cc1ccc(-c2cc(-c3ccc(F)cc3)n[nH]2)c(O)c1 | inconclusive: 20.6 µM [activator, partial curve, poor fit] | 
29 | CC(=O)Nc1ccc(CN(C)CC2CCCN(CCc3cccc(C(F)(F)F)c3)C2)cc1 (centres undefined) | inconclusive: 29.1 µM [activator, single point] | 
30 | CCOC(=O)c1cc2c(=O)n3cccc(C)c3nc2n(CC(C)C)c1=NC(=O)c1ccco1 | inconclusive: 7.31 µM [activator, partial curve] | 
31 | Oc1ccccc1-c1cc(-c2ccc(F)cc2)n[nH]1 |  | inactive: -1.85%
32 | OC(CN1CCOCC1)c1ccc(F)cc1 (centres undefined) | inconclusive: 14.6 µM [activator, single point] | 
33 | CCCCc1c(O)nc(SCC(=O)c2ccccc2)n(-c2ccccc2OC)c1=O | inconclusive: 18.4 µM [activator, single point] | 
34 | CCN(CC(=O)Nc1ccc(NC(C)=O)cc1)C(=O)c1ccc(C(=O)c2ccccc2)cc1 |  | inactive: -11%
35 | COc1ccc(O)c(-c2c(-c3ccc(Cl)cc3)n[nH]c2C)c1 | inconclusive: 0.146 µM [activator, partial curve, poor fit] | 
36 | COc1ccc(/C=C2\SC(=O)N(CCNC(=O)Cc3coc4cc(OC)ccc34)C2=O)cc1 |  | inactive: 12.8%
37 | CCOc1ccc(Oc2ccc(S(=O)(=O)N3CCOCC3)cc2NC(=O)CCNC(C)=O)cc1 |  | inactive: -39.2%
38 | COc1cccc2cc(C(=O)Nc3ccccc3C)/c(=N/NS(=O)(=O)c3ccccc3)oc12 |  | inactive: 4.44%
39 | C=C(C)/C=N/NC(=S)Nc1ccc(S(=O)(=O)N2CCOCC2)cc1 |  | inactive: -69.7%
40 | CC1=CC2=NC(=O)/C(=C\c3cccn3CCOc3cc(C)ccc3C)C(=N)N2O1 | inconclusive: 20.6 µM [activator, single point] | 
41 | CC(=O)Nc1ccc(NC(=O)CSc2ccc3nnc(-c4ccccn4)n3n2)cc1 |  | inactive: -15.3%
42 | O=C(CC12CC3CC(CC(C3)C1)C2)NCc1ccncc1 | inconclusive: 25.9 µM [activator, single point] | 
43 | C=CCNC1=C(Cl)C(=O)N(c2ccccc2Cl)C1=O | inconclusive: 20.6 µM [activator, partial curve, poor fit] | 
44 | O=C(Cc1ccsc1)N1CCN(S(=O)(=O)c2cc(C(F)(F)F)cc(C(F)(F)F)c2)CC1 | inconclusive: 23.1 µM [activator, single point] | 

Row | SMILES | Potency | re-replication activation
45 | CCCN(C(=O)c1cn(C)c(=O)c2ccccc12)c1ccccc1C |  | inactive: -3.07%
46 | COc1cc(Cl)c(C)cc1NC(=O)CN1C(=O)C2CC=CCC2C1=O (centres undefined) |  | inactive: -2.06%
47 | CCn1c(SCC(=O)N2CCCC2)nnc1-c1ccc(S(=O)(=O)N2CCCCCC2)cc1 |  | inactive: -11.8%
48 | COc1cc2c(cc1NC(=O)CSc1cccc[n+]1[O-])oc1ccccc12 |  | inactive: -6.95%
49 | O=C(O)c1cccc(N2C(=O)c3cccc4c(Cl)ccc(c34)C2=O)c1 | inconclusive: 23.1 µM [activator, partial curve, poor fit] | 
50 | O=C(N/N=C/c1ccc(N2CCOCC2)o1)c1cccc(C(F)(F)F)c1 | inconclusive: 29.1 µM [activator, single point] | 
51 | COc1ccc(-c2csc(N(Cc3ccccc3)C(=O)COc3ccc(Cl)cc3)n2)cc1 |  | inactive: -3.12%
52 | Cc1nn(C)cc1C(C(=O)NC1CCCCC1)N(C(=O)Cc1cccs1)c1ccc(Cl)cc1 (centres undefined) | inconclusive: 6.51 µM [activator, partial curve, poor fit] | 
53 | COC(=O)c1[nH]c2ccc(Br)cc2c1NC(=O)CN1CCCc2ccccc21 | inconclusive: 11.2 µM [activator, partial curve, poor fit] | 
54 | CN1C[C@@H]2[C@@H]3C(=O)N(Cc4ccccc4)C(=O)[C@@H]3[C@](Cc3ccccc3)(C1=O)N2C(=O)c1ccc(Cl)c(Cl)c1 | inconclusive: 14.6 µM [activator, partial curve, poor fit] | 
55 | O=C(CCCn1c(=S)[nH]c2cc3c(cc2c1=O)OCO3)N1CCN(c2ccccc2F)CC1 | inconclusive: 29.1 µM [activator, single point] | 
56 | Nc1ccc2nc3c(=O)n(CCc4ccccc4)c(=O)[nH]c3nc2c1 | inconclusive: 4.11 µM [activator, full curve, poor fit] | 
57 | Cn1c(CCN2CCCCC2)nc2cc(NS(=O)(=O)c3ccccc3)ccc21 | inconclusive: 23.1 µM [activator, single point] | 
58 | CCN1CCN(CCCNC(=O)c2cc3cc4ccc(OC)cc4nc3o2)CC1 | inconclusive: 18.4 µM [activator, single point] | 
59 | CC[C@H]1C(Nc2ccccc2)C[C@@H]2CCN3C(=O)CC[C@H]1[C@H]23 (some centres undefined) | inconclusive: 0.731 µM [activator, full curve, poor fit] | 
60 | COc1ccccc1/C=C/c1nc(S(=O)(=O)c2ccccc2)c(NCCN(C)C)o1 | inconclusive: 10.3 µM [activator, partial curve, poor fit] | 
61 | CS(=O)(=O)N(CC(=O)N1CCN(Cc2ccccc2)CC1)c1cccc(F)c1 | inconclusive: 23.1 µM [activator, partial curve, poor fit] | 
62 | Cc1ccc2nc(NCCNC(=O)c3ccccc3)c(C#N)cc2c1 | inconclusive: 29.1 µM [activator, single point] | 
63 | CC[C@@H](C)[C@H](CN[C@H](CNC)C(C)C)NC[C@@H](C)c1ccc(CC(C)C)cc1 | inconclusive: 23.1 µM [activator, single point] | 
64 | Cc1[nH]c2ccccc2c1/C=N/Nc1nc(Nc2ccc(F)cc2)nc(N2CCOCC2)n1 |  | inactive: 0.55%

3 compounds drawn at random from those above, as already listed:
Row | SMILES | Potency | re-replication activation
50 | O=C(N/N=C/c1ccc(N2CCOCC2)o1)c1cccc(C(F)(F)F)c1 | inconclusive: 29.1 µM [activator, single point] | 
51 | COc1ccc(-c2csc(N(Cc3ccccc3)C(=O)COc3ccc(Cl)cc3)n2)cc1 |  | inactive: -3.12%
56 | Nc1ccc2nc3c(=O)n(CCc4ccccc4)c(=O)[nH]c3nc2c1 | inconclusive: 4.11 µM [activator, full curve, poor fit] | 
